# Assay results reported in the supplement of paper PMC8728848.
# The list shows a part of the results.
# Key:
# Assay in all cases: glycan array binding signal (z-score within array); higher = stronger binding
# Conditions in all cases: glycan notation: IUPAC condensed, linker removed
# Fuc(a1-2)Gal = biological target: Fuc(a1-2)Gal
# In short: (§1)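 From the Consortium for Functional Glycomics database, 3228 arrays were curated, keeping only those whose protein sequence was available. Binding is given as a within-array Z-score averaged across arrays sharing a protein sequence and across linkers. Negative Z-scores can be read as non-binding.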
# Fuc(a1-2)Gal(b1-3)GalNAc = biological target: Fuc(a1-2)Gal(b1-3)GalNAc
# In short: as §1
# [1] = biological target: Fuc(a1-2)Gal(b1-3)GalNAc(a1-3)[Fuc(a1-2)]Gal(b1-4)Glc
# In short: as §1
# [2] = biological target: Fuc(a1-2)Gal(b1-3)GalNAc(a1-3)[Fuc(a1-2)]Gal(b1-4)GlcNAc
# In short: as §1
# [3] = biological target: Fuc(a1-2)Gal(b1-3)GalNAc(b1-3)Gal
# In short: as §1
# [4] = biological target: Fuc(a1-2)Gal(b1-3)GalNAc(b1-3)Gal(a1-4)Gal(b1-4)Glc
# In short: as §1
# [5] = biological target: Fuc(a1-2)Gal(b1-3)GalNAc(b1-4)[Neu5Ac(a2-3)]Gal(b1-4)Glc
# In short: as §1
# Fuc(a1-2)Gal(b1-3)GlcNAc = biological target: Fuc(a1-2)Gal(b1-3)GlcNAc
# In short: as §1
# [6] = biological target: Fuc(a1-2)Gal(b1-3)GlcNAc(b1-2)Man(a1-3)[Fuc(a1-2)Gal(b1-3)GlcNAc(b1-2)Man(a1-6)]Man(b1-4)GlcNAc(b1-4)GlcNAc
# In short: as §1
# [7] = biological target: Fuc(a1-2)Gal(b1-3)GlcNAc(b1-2)Man(a1-3)[Fuc(a1-2)Gal(b1-3)GlcNAc(b1-2)Man(a1-6)]Man(b1-4)GlcNAc(b1-4)[Fuc(a1-6)]GlcNAc
# In short: as §1
# [8] = biological target: Fuc(a1-2)Gal(b1-3)GlcNAc(b1-3)Gal(b1-4)Glc
# In short: as §1
# [9] = biological target: Fuc(a1-2)Gal(b1-3)GlcNAc(b1-3)GalNAc
# In short: as §1
# [10] = biological target: Fuc(a1-2)Gal(b1-3)GlcNAc(b1-3)[Fuc(a1-2)Gal(b1-3)GlcNAc(b1-6)]GalNAc
# In short: as §1
# [11] = biological target: Fuc(a1-2)Gal(b1-3)GlcNAc(b1-3)[Fuc(a1-3)[Gal(b1-4)]GlcNAc(b1-6)]Gal(b1-4)Glc
# In short: as §1
# [12] = biological target: Fuc(a1-2)Gal(b1-3)GlcNAc(b1-3)[Gal(b1-4)GlcNAc(b1-6)]Gal(b1-4)Glc
# In short: as §1
# [13] = biological target: Fuc(a1-2)Gal(b1-3)GlcNAc(b1-3)[Neu5Ac(a2-6)Gal(b1-4)GlcNAc(b1-6)]Gal(b1-4)Glc
# In short: as §1
# [14] = biological target: Fuc(a1-2)Gal(b1-3)GlcNAc6S
# In short: as §1
# [15] = biological target: Fuc(a1-2)Gal(b1-3)[Fuc(a1-4)]GlcNAc
# In short: as §1
# [16] = biological target: Fuc(a1-2)Gal(b1-3)[Fuc(a1-4)]GlcNAc(b1-2)Man(a1-3)[Fuc(a1-2)Gal(b1-3)[Fuc(a1-4)]GlcNAc(b1-2)Man(a1-3)]Man(b1-4)GlcNAc(b1-4)GlcNAc
# In short: as §1
# [17] = biological target: Fuc(a1-2)Gal(b1-3)[Fuc(a1-4)]GlcNAc(b1-2)Man(a1-3)[Fuc(a1-2)Gal(b1-3)[Fuc(a1-4)]GlcNAc(b1-2)Man(a1-6)]Man(b1-4)GlcNAc(b1-4)GlcNAc
# In short: as §1
# [18] = biological target: Fuc(a1-2)Gal(b1-3)[Fuc(a1-4)]GlcNAc(b1-2)Man(a1-3)[Fuc(a1-2)Gal(b1-3)[Fuc(a1-4)]GlcNAc(b1-2)Man(a1-6)]Man(b1-4)GlcNAc(b1-4)[Fuc(a1-6)]GlcNAc(b1-4)[Fuc(a1-6)]GlcNAc
# In short: as §1
# [19] = biological target: Fuc(a1-2)Gal(b1-3)[Fuc(a1-4)]GlcNAc(b1-2)Man(a1-6)[Fuc(a1-2)Gal(b1-3)[Fuc(a1-4)]GlcNAc(b1-2)Man(a1-3)]Man(b1-4)GlcNAc(b1-4)[Fuc(a1-6)]GlcNAc
# In short: as §1
# [20] = biological target: Fuc(a1-2)Gal(b1-3)[Fuc(a1-4)]GlcNAc(b1-3)[Fuc(a1-3)[Gal(b1-4)]GlcNAc(b1-6)]Gal(b1-4)Glc
# In short: as §1
# [21] = biological target: Fuc(a1-2)Gal(b1-3)[Fuc(a1-4)]GlcNAc(b1-3)[Gal(b1-4)GlcNAc(b1-6)]Gal(b1-4)Glc
# In short: as §1
# [22] = biological target: Fuc(a1-2)Gal(b1-4)Fuc(a1-3)]GlcNAc(b1-2)Man(a1-3)[Fuc(a1-2)Gal(b1-4)[Fuc(a1-3)]GlcNAc(b1-2)Man(a1-6)]Man(b1-4)GlcNAc(b1-4)GlcNAc
# In short: as §1
# Fuc(a1-2)Gal(b1-4)Glc = biological target: Fuc(a1-2)Gal(b1-4)Glc
# In short: as §1
# Fuc(a1-2)Gal(b1-4)Glc6S = biological target: Fuc(a1-2)Gal(b1-4)Glc6S
# In short: as §1
# Fuc(a1-2)Gal(b1-4)GlcNAc = biological target: Fuc(a1-2)Gal(b1-4)GlcNAc
# In short: as §1
# [23] = biological target: Fuc(a1-2)Gal(b1-4)GlcNAc(b1-2)Man
# In short: as §1
# [24] = biological target: Fuc(a1-2)Gal(b1-4)GlcNAc(b1-2)Man(a1-3)[Fuc(a1-2)Gal(b1-4)GlcNAc(b1-2)Man(a1-6)]Man(b1-4)GlcNAc(b1-4)GlcNAc
# In short: as §1
binder,measurement,setting,value
"LlpA1 (Pseudomonas fluorescens), Q4KHC3 (protein) MGSSHHHHHHSSGLVPRGSHMAWIRYDFTDNGSSVLPARYYMAPNQYLQSPNKRFKLLFQADGNLALYDGAQLAWVADQNTPFTNVSKGNKKDPMMVFMNYGFVLDDPLRGRIWSTTPSDPTMGSREDASLRAFTQVQDDGNIVTVDTIPHWYAPNGRVFTPAVGAAMIIGGTTELVPGQFYSAGEHSLVFQGDGNLVVYGPNSSVIWATYTQNKGGVRCVMQEDGNLVIYAANNGVVWQSGTGGHPGATIRLQANGSFTIVTERPVWARFGYTPTIKPPRVFYPDHKWKTGSYTWNNVF",glycan array binding signal (z-score),Fuc(a1-2)Gal,-0.373
same,glycan array binding signal (z-score),Fuc(a1-2)Gal(b1-3)GalNAc,-0.757
same,glycan array binding signal (z-score),[1],-0.573
same,glycan array binding signal (z-score),[2],0.017
same,glycan array binding signal (z-score),[3],-0.517
same,glycan array binding signal (z-score),[4],-0.383
same,glycan array binding signal (z-score),[5],-0.274
same,glycan array binding signal (z-score),Fuc(a1-2)Gal(b1-3)GlcNAc,0.181
same,glycan array binding signal (z-score),[6],3.75
same,glycan array binding signal (z-score),[7],-0.133
same,glycan array binding signal (z-score),[8],-0.433
same,glycan array binding signal (z-score),[9],-0.31
same,glycan array binding signal (z-score),[10],0.443
same,glycan array binding signal (z-score),[11],0.406
same,glycan array binding signal (z-score),[12],0.281
same,glycan array binding signal (z-score),[13],-0.394
same,glycan array binding signal (z-score),[14],0.124
same,glycan array binding signal (z-score),[15],-0.494
same,glycan array binding signal (z-score),[16],0.043
same,glycan array binding signal (z-score),[17],3.21
same,glycan array binding signal (z-score),[18],0.541
same,glycan array binding signal (z-score),[19],0.331
same,glycan array binding signal (z-score),[20],-0.146
same,glycan array binding signal (z-score),[21],0.091
same,glycan array binding signal (z-score),[22],3.1
same,glycan array binding signal (z-score),Fuc(a1-2)Gal(b1-4)Glc,-0.283
same,glycan array binding signal (z-score),Fuc(a1-2)Gal(b1-4)Glc6S,0.047
same,glycan array binding signal (z-score),Fuc(a1-2)Gal(b1-4)GlcNAc,-0.501
same,glycan array binding signal (z-score),[23],-0.795
same,glycan array binding signal (z-score),[24],0.8

# Two neighbouring records already listed, for reference:
binder,measurement,setting,value
"LlpA1 (Pseudomonas fluorescens), Q4KHC3 (protein) MGSSHHHHHHSSGLVPRGSHMAWIRYDFTDNGSSVLPARYYMAPNQYLQSPNKRFKLLFQADGNLALYDGAQLAWVADQNTPFTNVSKGNKKDPMMVFMNYGFVLDDPLRGRIWSTTPSDPTMGSREDASLRAFTQVQDDGNIVTVDTIPHWYAPNGRVFTPAVGAAMIIGGTTELVPGQFYSAGEHSLVFQGDGNLVVYGPNSSVIWATYTQNKGGVRCVMQEDGNLVIYAANNGVVWQSGTGGHPGATIRLQANGSFTIVTERPVWARFGYTPTIKPPRVFYPDHKWKTGSYTWNNVF",glycan array binding signal (z-score),[6],3.75
same,glycan array binding signal (z-score),[7],-0.133
